Source: paper doi:10.1101/707661
These are yes or no findings as the source states them, for the method shown. Binding seen in cells or lysates may run through a third protein. Some results given as binding are weak or reduced against the parent protein; the word gives no strength. For some of these results: Where a sequence is shown, tags or fusion partners need not be part of it.

Amino acid sequences for entries named in this document (tags omitted).
UniProt P11387: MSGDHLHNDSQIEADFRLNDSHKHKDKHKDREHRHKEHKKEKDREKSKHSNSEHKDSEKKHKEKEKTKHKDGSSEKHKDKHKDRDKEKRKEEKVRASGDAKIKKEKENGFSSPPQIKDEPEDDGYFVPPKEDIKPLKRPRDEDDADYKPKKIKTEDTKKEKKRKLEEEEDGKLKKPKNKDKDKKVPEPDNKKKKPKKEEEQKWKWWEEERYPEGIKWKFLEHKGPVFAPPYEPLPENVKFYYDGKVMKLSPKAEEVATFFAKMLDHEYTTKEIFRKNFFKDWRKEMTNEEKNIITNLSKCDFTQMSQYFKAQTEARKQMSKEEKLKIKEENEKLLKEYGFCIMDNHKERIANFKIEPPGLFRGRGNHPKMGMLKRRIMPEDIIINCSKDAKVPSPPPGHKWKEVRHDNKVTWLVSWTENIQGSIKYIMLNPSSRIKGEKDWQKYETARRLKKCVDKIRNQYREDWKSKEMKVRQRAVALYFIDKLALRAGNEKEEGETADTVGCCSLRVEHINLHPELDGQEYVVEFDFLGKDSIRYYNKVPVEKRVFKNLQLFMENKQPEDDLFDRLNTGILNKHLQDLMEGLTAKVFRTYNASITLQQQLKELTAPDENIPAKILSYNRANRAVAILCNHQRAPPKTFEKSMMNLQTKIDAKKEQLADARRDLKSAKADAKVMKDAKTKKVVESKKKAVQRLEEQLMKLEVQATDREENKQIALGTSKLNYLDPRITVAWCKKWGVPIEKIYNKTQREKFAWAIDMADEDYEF
UniProt Q02880: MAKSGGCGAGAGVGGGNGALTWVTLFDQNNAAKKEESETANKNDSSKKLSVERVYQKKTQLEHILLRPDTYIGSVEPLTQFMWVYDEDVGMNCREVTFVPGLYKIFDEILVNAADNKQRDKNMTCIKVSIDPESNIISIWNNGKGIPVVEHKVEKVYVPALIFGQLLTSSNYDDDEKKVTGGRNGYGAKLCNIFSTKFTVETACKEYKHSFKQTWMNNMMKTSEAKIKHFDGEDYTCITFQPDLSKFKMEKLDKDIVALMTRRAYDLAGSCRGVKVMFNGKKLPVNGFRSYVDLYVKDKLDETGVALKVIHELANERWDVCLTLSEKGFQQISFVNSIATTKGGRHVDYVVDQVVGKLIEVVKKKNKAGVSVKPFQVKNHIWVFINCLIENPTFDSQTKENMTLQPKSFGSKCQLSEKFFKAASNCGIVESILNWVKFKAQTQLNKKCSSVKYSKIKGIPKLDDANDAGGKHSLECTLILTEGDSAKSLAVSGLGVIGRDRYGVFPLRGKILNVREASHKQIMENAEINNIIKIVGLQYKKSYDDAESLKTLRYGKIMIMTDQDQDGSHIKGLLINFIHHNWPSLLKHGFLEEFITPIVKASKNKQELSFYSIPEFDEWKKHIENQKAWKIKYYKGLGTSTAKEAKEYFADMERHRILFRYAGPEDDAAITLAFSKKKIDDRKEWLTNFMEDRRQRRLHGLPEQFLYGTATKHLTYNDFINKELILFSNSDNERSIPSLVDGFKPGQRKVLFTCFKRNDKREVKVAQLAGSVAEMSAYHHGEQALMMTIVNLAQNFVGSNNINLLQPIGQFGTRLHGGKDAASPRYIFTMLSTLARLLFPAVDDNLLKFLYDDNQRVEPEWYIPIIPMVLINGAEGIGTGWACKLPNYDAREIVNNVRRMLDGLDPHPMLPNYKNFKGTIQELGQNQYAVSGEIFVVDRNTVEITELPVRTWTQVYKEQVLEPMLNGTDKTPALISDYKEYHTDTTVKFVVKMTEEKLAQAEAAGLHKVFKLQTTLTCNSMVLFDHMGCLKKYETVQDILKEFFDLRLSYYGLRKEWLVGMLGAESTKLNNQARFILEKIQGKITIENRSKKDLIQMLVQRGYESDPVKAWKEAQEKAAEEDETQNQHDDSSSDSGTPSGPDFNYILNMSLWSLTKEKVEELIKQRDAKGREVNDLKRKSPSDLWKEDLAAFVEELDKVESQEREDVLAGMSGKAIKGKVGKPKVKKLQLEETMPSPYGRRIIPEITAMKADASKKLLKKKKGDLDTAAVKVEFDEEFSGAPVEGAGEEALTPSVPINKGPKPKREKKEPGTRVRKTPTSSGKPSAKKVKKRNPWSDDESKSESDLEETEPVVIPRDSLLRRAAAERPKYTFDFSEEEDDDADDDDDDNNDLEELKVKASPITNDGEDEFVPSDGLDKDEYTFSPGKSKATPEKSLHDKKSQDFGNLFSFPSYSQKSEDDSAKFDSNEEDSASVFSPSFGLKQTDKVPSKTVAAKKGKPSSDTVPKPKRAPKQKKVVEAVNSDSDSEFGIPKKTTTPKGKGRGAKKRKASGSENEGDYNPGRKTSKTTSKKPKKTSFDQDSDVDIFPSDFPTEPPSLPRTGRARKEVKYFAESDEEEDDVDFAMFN
UniProt P11388: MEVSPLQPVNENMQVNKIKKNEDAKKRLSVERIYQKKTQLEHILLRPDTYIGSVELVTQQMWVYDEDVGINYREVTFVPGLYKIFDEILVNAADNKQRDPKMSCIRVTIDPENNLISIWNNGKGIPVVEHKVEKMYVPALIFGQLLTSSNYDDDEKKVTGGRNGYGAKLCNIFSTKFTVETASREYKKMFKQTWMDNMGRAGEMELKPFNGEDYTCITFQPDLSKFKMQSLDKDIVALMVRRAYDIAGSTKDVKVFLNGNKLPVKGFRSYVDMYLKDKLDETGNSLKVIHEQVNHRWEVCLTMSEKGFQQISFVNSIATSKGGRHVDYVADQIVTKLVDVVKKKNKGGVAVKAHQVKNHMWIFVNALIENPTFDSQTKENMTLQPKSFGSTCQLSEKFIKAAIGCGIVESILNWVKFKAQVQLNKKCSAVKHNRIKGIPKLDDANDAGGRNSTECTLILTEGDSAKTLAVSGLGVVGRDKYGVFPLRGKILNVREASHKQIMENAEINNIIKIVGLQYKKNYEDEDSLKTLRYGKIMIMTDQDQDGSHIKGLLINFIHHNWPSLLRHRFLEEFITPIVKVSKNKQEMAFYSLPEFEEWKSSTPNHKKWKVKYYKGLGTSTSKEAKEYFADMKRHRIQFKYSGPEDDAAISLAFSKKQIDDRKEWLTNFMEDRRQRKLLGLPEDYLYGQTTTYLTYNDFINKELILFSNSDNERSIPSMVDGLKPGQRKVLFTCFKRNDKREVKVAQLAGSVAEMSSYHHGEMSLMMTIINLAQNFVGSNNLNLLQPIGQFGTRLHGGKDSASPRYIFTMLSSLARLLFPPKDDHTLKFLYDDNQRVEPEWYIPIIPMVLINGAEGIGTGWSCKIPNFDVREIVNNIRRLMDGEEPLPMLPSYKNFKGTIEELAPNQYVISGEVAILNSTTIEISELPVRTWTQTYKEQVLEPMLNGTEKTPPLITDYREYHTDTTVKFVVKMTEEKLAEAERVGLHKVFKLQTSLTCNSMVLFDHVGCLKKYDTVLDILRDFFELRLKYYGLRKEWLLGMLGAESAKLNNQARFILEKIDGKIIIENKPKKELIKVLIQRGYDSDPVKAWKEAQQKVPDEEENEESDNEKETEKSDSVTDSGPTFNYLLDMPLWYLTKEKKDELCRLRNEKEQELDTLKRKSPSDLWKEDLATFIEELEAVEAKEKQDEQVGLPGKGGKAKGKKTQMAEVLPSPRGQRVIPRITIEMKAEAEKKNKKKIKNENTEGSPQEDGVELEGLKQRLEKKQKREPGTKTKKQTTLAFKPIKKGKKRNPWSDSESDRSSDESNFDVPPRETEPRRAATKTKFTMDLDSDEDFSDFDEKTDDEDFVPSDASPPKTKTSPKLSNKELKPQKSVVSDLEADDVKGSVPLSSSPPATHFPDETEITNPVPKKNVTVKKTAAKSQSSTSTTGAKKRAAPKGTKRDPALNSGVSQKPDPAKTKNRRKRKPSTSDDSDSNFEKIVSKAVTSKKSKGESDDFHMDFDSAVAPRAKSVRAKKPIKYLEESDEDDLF

T1: FLAG-PIAS4 (human) (UniProt Q8N2W9)
T1 sequence: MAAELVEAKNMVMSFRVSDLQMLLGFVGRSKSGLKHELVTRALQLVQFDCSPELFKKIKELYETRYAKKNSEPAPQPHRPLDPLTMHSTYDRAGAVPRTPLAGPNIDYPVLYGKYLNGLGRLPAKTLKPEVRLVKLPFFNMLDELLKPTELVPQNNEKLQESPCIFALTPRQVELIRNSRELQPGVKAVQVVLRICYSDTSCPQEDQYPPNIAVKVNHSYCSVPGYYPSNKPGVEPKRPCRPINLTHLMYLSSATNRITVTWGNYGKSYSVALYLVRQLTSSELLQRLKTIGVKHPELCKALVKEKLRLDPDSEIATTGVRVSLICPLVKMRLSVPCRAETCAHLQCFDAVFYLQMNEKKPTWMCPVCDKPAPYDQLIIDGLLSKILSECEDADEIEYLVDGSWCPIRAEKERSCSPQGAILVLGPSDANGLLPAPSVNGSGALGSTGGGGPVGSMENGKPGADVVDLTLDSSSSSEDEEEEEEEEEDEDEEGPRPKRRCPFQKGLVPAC


What was measured:
FLAG-PIAS4 (human) = biological target: T1, FLAG-PIAS4 (human); assay: proximity ligation
[1] = biological target: 6×His tagged TOP1 (human) (UniProt P11387); assay: pull-down
[2] = biological target: FLAG tagged TOP2β (human) (UniProt Q02880); assay: co-IP
[3] = biological target: FLAG tagged TOP2α (human) (UniProt P11388); assay: co-IP

binding (FLAG-PIAS4 (human))	binding [1]	binding [2]	binding [3]	Molecule
binds				TOP1 (from UniProt P11387 1-765)
	binds	binds	binds	PIAS4 (protein, UniProt Q8N2W9 1-510) MAAELVEAKNMVMSFRVSDLQMLLGFVGRSKSGLKHELVTRALQLVQFDCSPELFKKIKELYETRYAKKNSEPAPQPHRPLDPLTMHSTYDRAGAVPRTPLAGPNIDYPVLYGKYLNGLGRLPAKTLKPEVRLVKLPFFNMLDELLKPTELVPQNNEKLQESPCIFALTPRQVELIRNSRELQPGVKAVQVVLRICYSDTSCPQEDQYPPNIAVKVNHSYCSVPGYYPSNKPGVEPKRPCRPINLTHLMYLSSATNRITVTWGNYGKSYSVALYLVRQLTSSELLQRLKTIGVKHPELCKALVKEKLRLDPDSEIATTGVRVSLICPLVKMRLSVPCRAETCAHLQCFDAVFYLQMNEKKPTWMCPVCDKPAPYDQLIIDGLLSKILSECEDADEIEYLVDGSWCPIRAEKERSCSPQGAILVLGPSDANGLLPAPSVNGSGALGSTGGGGPVGSMENGKPGADVVDLTLDSSSSSEDEEEEEEEEEDEDEEGPRPKRRCPFQKGLVPAC
